Test results: PubChem BioAssay AID493027 (The Scripps Research Institute Molecular Screening Center, 2011)
Several values for one entry are separate records, joined by “and”; a condition that tells them apart may be missing. Equal values may be shown once. Hit rate of the full screen: of about 2,000 compounds, about 45 (2%) were called active.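 The calls were made as follows: active = inhibition above the screen-wide mean inhibition plus 3 SD (cut at about 44% in these data); inactive = the rest.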 The list shows a part of the results.

By UniProt entry, the sequences of proteins in these tests, tags left out. Where a name states a change or a piece, a line headed by the entry shows the natural chain unless it says otherwise.
UniProt O60240: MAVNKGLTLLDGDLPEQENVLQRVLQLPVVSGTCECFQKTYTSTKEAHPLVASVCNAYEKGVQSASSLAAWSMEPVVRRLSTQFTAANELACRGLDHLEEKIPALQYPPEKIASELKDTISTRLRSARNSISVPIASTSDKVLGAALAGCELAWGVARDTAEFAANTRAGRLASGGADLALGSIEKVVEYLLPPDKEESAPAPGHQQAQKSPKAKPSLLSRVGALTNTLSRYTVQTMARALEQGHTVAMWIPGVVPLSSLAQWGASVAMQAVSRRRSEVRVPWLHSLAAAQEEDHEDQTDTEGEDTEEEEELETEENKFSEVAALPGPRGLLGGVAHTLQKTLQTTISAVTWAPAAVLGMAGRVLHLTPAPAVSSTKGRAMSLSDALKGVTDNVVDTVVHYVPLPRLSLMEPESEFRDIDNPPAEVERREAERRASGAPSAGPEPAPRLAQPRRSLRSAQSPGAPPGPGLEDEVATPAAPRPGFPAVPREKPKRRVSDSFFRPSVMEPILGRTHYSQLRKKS
UniProt Q8WTS1: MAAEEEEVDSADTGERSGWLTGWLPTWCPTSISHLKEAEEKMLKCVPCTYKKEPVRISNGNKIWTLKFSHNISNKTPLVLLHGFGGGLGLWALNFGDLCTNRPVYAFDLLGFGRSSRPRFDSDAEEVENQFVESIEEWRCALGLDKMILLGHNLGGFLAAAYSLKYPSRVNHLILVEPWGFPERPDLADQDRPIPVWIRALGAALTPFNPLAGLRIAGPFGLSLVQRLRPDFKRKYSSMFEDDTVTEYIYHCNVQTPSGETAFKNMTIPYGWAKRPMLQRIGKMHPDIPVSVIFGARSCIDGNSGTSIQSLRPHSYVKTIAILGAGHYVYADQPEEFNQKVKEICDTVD

target: Perilipin-1 (Homo sapiens) + 1-acylglycerol-3-phosphate O-acyltransferase ABHD5 (Homo sapiens) (UniProt O60240+Q8WTS1); assay: blockers of ABHD5 binding to perilipin-1 – cell lysate, split luciferase complementation, luminescence, NIH validation set, pilot screen (AID 493027);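 also: 0% = DMSO wells with the 100% control not disclosed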; details: split G. princeps luciferase complementation, 4 h; at 7.9 µM, active compounds read high

inhibition, inactive:
CCOc1ccc(C(=O)N2CCCC2C(=O)O)cc1 (stereo unspecified) -4.07%
CC(=O)NS(=O)(=O)c1ccc(N)cc1 2.8%
O=C(N/N=C\c1cc([N+](=O)[O-])ccc1N1CCOCC1)c1ccccn1 -3.78%
COc1ccc(C(=O)CC2OC(=O)c3c2ccc(OC)c3OC)cc1 (stereo unspecified) 2.22%
CC(=O)OCC(=O)[C@@]12OC(C)(C)O[C@@H]1C[C@H]1[C@@H]3C[C@H](F)C4=CC(=O)C=C[C@]4(C)[C@@]3(F)[C@@H](O)C[C@@]12C 6.92%
COc1ccc(/C=C\c2cc(OC)c(OC)cc2CC[N+](C)(C)C)cc1OC -4.32%
c1ccc2c(CC3=NCCN3)cccc2c1 -5.66%
CCN(CC)CC(=O)Nc1c(C)cccc1C -5.47% and 3.97%
CC(=O)CSc1ncnc2c1cnn2-c1ccccc1 7.34%
CC(C)C12CN3CC(C(C)C)(CN(C1)C31C(=O)Nc3ccccc31)C2=O (stereo unspecified) -9.01%
CCOC(=O)COc1ccc2c(=O)c(-c3ccccc3)coc2c1 -3.06%
NC(N)=NC(=O)c1nc(Cl)c(N)nc1N 3.33%
COc1ccc(Cc2noc(CN(C)CCN3CCc4ccccc4C3)n2)cc1OC -4.02%
CC(=O)CCc1oc2ccccc2c1-c1ccccc1 -1.83%
Cc1cccc(C)c1NS(=O)(=O)c1ccc(NC(=O)c2ccc(Cl)c([N+](=O)[O-])c2)cc1 26.2%
CCc1ccc(/C=C2\SC(=S)N(CCC(=O)N3CCN(C)CC3)C2=O)cc1 -12.7%
COC(=O)c1cc(=O)c2ccc(OC)cc2o1 -10.3%
CCOC(=O)/C=C1\NC(C)(C)Cc2cc(OC)c(OC)cc21 -2.16%
CC12CN3CC(C)(CN(C1)C3c1ccc(Br)cc1O)C2 (stereo unspecified) 1.91%
O=S(=O)(NCCCCCNS(=O)(=O)c1ccccc1)c1ccccc1 1.18%
CC(C)C12CN3CC(C(C)C)(CN(C1)C3c1ccccc1O)C2=O (stereo unspecified) 0.8%
NS(=O)(=O)c1cc2c(cc1C(F)(F)F)NCNS2(=O)=O -0.13%
CC(O)Cn1cnc2c1c(=O)n(C)c(=O)n2C (stereo unspecified) 0.82%
O=C(NC(=S)N1CCCCC1)c1cccnc1 -3.63%
COc1cc(CNCCc2ccccc2F)ccc1OCC(=O)N1CCCCC1 -13%
COc1ccc2nc(Nc3nc(CSc4ccc(C)cc4)cc(=O)[nH]3)nc(C)c2c1 9.69%
